Data as given in article PMC7984842, “Genetic disruption of WASHC4 drives endo-lysosomal dysfunction and cognitive-movement impairments in mice and humans” (eLife, 2021).
Results are given in words; binding and its absence hold for the method and conditions named. Binding seen in cells or lysates may run through a third protein. These calls come from enrichment with a bait or labelling near it, and not all partners need be listed. Sequences can lack the tags named with a protein.

The chains behind the UniProt entries cited, without tags or fusion partners. Residues count along the entry.
UniProt Q4ACU6: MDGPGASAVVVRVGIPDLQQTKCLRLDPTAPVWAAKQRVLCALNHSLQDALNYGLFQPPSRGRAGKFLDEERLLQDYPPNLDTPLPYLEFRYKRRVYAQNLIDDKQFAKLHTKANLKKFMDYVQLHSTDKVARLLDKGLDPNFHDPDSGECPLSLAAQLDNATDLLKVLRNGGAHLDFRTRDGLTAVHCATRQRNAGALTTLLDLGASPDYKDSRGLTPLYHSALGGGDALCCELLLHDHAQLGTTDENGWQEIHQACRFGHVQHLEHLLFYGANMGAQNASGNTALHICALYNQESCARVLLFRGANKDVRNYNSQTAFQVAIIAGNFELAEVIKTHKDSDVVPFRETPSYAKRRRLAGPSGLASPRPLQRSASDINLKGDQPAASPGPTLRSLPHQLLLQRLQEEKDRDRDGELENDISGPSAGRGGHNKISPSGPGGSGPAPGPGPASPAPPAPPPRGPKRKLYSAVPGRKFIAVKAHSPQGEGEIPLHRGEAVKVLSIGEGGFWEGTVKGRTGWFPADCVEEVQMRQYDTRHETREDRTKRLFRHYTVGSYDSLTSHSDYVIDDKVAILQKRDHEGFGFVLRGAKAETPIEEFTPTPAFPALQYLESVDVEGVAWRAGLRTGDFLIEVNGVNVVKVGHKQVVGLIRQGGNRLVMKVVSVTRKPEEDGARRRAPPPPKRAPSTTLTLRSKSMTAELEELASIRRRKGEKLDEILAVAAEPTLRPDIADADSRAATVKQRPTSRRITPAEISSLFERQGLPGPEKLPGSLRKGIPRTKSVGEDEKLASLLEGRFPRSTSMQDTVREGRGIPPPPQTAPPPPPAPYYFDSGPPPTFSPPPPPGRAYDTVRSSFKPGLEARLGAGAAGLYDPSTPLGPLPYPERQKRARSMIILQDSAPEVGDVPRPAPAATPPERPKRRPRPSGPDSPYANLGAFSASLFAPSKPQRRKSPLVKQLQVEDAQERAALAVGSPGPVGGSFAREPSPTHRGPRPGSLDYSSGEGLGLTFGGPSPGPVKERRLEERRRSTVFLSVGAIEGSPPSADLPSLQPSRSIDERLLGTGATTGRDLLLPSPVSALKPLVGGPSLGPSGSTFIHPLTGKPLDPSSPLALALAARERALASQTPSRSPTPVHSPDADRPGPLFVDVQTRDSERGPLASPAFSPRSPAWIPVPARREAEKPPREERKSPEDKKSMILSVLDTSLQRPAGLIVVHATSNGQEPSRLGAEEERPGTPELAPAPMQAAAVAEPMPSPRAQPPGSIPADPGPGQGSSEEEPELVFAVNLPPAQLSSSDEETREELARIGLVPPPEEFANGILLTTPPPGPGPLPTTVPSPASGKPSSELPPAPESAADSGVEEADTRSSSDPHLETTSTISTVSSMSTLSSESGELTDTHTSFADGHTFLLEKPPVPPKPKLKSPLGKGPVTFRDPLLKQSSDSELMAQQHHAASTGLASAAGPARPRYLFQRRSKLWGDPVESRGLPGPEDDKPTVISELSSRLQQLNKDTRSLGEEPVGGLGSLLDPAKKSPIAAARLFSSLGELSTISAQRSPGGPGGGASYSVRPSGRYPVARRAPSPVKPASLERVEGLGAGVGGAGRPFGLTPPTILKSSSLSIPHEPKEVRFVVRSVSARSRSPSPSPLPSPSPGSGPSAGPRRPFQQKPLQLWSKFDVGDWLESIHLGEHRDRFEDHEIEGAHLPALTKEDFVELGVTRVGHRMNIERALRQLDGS
UniProt Q8BWQ6: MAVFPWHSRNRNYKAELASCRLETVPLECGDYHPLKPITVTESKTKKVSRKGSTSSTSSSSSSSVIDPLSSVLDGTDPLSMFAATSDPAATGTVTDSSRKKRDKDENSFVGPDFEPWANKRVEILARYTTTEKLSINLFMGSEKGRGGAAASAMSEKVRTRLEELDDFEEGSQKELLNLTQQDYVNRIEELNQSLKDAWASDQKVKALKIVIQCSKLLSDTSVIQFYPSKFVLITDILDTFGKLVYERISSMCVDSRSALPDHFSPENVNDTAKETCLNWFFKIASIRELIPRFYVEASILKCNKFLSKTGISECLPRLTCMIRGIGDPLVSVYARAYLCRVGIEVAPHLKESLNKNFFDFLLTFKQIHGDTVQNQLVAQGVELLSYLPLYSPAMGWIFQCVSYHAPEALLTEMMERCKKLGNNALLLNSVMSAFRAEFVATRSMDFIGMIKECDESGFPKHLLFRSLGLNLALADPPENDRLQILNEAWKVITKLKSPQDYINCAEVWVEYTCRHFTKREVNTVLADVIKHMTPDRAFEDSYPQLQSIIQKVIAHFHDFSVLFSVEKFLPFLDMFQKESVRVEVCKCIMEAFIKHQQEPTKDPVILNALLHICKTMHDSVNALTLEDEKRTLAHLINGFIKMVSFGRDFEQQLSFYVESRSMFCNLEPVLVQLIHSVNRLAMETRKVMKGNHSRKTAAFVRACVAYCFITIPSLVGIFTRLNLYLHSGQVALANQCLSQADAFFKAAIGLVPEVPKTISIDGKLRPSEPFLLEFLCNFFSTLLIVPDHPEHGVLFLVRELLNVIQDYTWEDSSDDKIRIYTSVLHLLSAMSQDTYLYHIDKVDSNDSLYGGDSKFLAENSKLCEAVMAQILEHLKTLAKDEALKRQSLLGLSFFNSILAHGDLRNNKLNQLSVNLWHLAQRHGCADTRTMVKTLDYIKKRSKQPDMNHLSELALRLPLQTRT
UniProt Q3UH99, residues 31-525: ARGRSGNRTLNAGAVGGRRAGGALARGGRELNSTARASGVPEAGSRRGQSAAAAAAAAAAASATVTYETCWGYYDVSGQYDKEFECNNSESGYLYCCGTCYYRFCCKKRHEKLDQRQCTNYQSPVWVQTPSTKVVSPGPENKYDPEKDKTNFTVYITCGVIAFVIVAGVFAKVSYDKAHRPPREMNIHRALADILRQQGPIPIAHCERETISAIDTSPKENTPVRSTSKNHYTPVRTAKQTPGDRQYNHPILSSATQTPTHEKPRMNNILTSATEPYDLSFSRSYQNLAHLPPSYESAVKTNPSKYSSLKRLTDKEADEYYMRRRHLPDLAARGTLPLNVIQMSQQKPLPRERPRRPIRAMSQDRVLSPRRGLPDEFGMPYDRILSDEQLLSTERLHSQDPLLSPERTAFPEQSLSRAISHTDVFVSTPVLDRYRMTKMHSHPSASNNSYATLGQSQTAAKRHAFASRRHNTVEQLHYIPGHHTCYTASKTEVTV
UniProt Q7TQK5: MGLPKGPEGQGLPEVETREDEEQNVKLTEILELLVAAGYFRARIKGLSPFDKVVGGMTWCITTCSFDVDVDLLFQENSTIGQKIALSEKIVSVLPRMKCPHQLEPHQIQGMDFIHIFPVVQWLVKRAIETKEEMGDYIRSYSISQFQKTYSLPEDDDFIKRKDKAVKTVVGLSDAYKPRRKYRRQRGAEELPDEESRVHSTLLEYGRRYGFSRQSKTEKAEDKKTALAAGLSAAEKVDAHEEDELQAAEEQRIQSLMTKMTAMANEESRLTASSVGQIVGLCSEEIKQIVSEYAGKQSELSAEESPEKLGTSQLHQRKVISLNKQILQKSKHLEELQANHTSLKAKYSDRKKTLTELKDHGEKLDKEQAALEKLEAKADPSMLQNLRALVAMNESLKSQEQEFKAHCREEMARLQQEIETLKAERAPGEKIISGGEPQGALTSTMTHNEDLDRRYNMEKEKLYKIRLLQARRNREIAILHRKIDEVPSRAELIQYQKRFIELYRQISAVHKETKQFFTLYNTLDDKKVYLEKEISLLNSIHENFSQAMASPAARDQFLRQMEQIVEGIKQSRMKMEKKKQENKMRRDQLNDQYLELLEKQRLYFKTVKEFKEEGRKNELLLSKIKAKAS
UniProt Q8K2Q0: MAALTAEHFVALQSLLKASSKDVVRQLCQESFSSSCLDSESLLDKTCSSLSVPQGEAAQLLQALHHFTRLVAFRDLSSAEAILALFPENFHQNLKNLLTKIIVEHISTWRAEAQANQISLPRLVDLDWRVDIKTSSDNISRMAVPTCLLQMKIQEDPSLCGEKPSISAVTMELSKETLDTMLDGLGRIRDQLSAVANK

T1: WASH1-BioID2-HA (UniProt Q8VDD8)
T1 sequence: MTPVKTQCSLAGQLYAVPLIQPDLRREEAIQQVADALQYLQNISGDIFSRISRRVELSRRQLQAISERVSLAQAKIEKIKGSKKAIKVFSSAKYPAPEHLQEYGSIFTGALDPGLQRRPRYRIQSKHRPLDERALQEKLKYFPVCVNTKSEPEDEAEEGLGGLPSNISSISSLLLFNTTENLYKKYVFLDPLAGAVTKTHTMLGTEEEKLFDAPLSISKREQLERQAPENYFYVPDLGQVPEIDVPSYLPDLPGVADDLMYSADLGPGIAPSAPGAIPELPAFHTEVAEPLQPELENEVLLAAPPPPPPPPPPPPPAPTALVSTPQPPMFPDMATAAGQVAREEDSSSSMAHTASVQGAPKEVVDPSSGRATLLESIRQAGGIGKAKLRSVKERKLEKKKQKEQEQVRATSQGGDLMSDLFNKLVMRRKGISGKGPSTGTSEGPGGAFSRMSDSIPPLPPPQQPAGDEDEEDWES


What follows are molecules tested against T1, WASH1-BioID2-HA (assay: proximity labelling; in vivo BioID (iBioID): AAV hSyn1-WASH1-BioID2-HA in wild-type mouse brain, biotin 24 mg/kg for 7 days, biotinylated proteins purified on NeutrAvidin beads, label-free LC-MS/MS; enrichment over solubleBioID2 control (fold-change >=4, FDR<0.05)).

binding | Molecule
binds | SYNGAP1 (from UniProt F6SEU4 1-1340)
binds | SHANK3 (from UniProt Q4ACU6 1-1730)
binds | VPS35L (from UniProt Q8BWQ6 1-963)
binds | SHISA6 (from UniProt Q3UH99 31-525)
binds | CCDC93 (from UniProt Q7TQK5 1-629)
binds | COMMD9 (from UniProt Q8K2Q0 1-198)
binds | DLGAP3 (protein, UniProt Q6PFD5 1-977) MRGYHGDRGSHPRPARFADQQHMDVGPAARAPYLLGSREAFSTEPRFCAPRAGLGHLSPEGPLSLSEGPSSVGPEGGPGGVGAGGGSSTFPRMYPGQGPFDTCEDCVGHPQGKGATRLPPTLLDQFEKQLPVQQDGFHTLPYQRGPAGPGPGPGSGAAPEARSESPSRIRHLVHSVQKLFAKSHSLEAPGKRDYNGPKADGRGSSGGDSYSGPGSGGTPTSHHHHHHHHHHHHQSRHGKRSKSKDRKGDGRHQTKATGWWSSDDNLDSDSGFLGGRPPGEPGGPFCLDAPDGSYRDLSFKGRSGGSEGRCLACTGMSMSLDGQSVKRSAWHTMMVSQGRDGYPGAGPGKGLLGPETKAKARTYHYLQVPQDDWGGYPTGGKDGEIPCRRMRSGSYIKAMGDEESGDSDGSPKTSPKALARRFASRRSSSVDTARINCCVPPRIHPRSSIPGYSRSLTTGQLSEEFNQQLEAVCGSVFGELESQAVDALDLPGCFRMRSHSYLRAIQAGCSQDDDCLPLLAAPASVSGRPGSSFNFRKAPPPIPPGSQAPPRISITAQSSTDSAHESFTAAEGPARRCSSADGLDGPTMGARTLELAPVPPRASPKPPTLIIKTIPGREELRSLARQRKWRPSIGVQVETISDSDTENRSRREFHSIGVQVEEDKRRARFKRSNSVTAGVQADLELEGLAGLATVATEDKALQFGRSFQRHASEPQPGPRAPTYSVFRTVHTQGQWAYREGYPLPYEPPATDGSPGPTPVPAPGPGSGRRDSWMERGSRSLPDSGRTSPCPRDGEWFIKMLRAEVEKLEHWCQQMEREAEDYELPEEILEKIRSAVGSTQLLLSQKVQQFFRLCQQSLDPTAFPVPTFQDLAGFWDLLQLSIEDVTLKFLELQQLKANSWKLLEPKEEKKVPPPIPKKPSRGRGVPVKERSLDSVDRQRQEARKRLLAAKRAASFRHSSATESADSIEIYIPEAQTRL
binds | DLGAP2 (protein, UniProt Q8BJ42 1-1059) MGTAQVLPGILQKHCCILPDRNTESQCTLCGEPEEEEGGDLAQPGLSFPGPAEEDIDQQYSWSPTQHFNEERYSPAPRNMKGLTGSRNQPQLCAGHTCGLSPPDDCEHPHDHMHHGSDVRQPYLLSPAESCPMDHHRCSPRSSVHSECMMMPVMLGDHVSSSTFPRMHYSSHYDTRDDCAMSHTSTKVNRIPANLLDQFEKQLPLHRDGFHTLQYQRASAATEQRNESPGRIRHLVHSVQKLFTKSHSLEGSSKSNINGTKSDSRVDDHHQSHLSKHSKRSKSKERKPESKHKSGMSSWWSSDDNLDSDSTYRTPSVAHRHHMDHIPHCYPEALQSPFGDLSLKTSKSNNDVKCSACEGLALTPDTRYMKRSSWSTLTVSQAKEAYRKSSLNLDKPLVHPEIKPSLRPCHYLQVPQDDWGAYPTGGKEEEIPCRRMRSGSYIKAMGDEESGESDSSPKTSPTVAIRPEPLLKPIIQRPLGDHQTQSYLQAATEVPVGHSLNPSINYNSPKFRSRNQSYMRAVSTLSQASCVSQMSEAEVNGQFESVCESVFSEVESQAMDALDLPGCFRTRSHSYLRAIQAGYSQDDECIPVMTSSNMTSTIRSTAAVSYTNYKKTPPPVPPRTTSKPLISVTAQSSTESTQDAYQDSRAQRMSPWPQDSRGGLYNSMDSLDSNKAMNLALETAAAQRHAADTQSSSTRSIDKAVLASKAEELLKSRCSSIGVQDSEFPDHQPYPRSDVETATDSDTESRGLREYHSVGVQVEDEKRHGRFKRSNSVTAAVQADLELEGFPGHVSMEDKGLQFGSSFQRHSEPSTPTQYGALRTVRTQGLFSYREDYRTQVDTSTLPPPDPWLEPSLDTVETGRMSPCRRDGSWFLKLLHTETKRMEGWCKEMEREAEENDLLEDILGKIRSAVGSAQLLMSQKFQQFYWLCQQNMDPSAMPRPTSQDLAGYWDMLQLSVEDVSMKFDELHQLKLNDWKIIESPERKEERKIPPPIPKKPPKGKFPITREKSLDLPDRQRQEARRRLMAAKRAASFRQNSATERADSIEIYIPEAQTRL
binds | SNX16 (protein, UniProt Q8C080 1-344) MATPYVPVPMPIGNSASSFTNNRNQRSSSFGSVSTSSTSSKGQLEDSAVGSLKQTNVQDQMDSASSMCGSPLIRTKFTGTDSSIEYSARPREAEEQHPEAVNWEDRPSTPTILGYEVMEERAKFTVYKILVKKSPEESWVVFRRYTDFSRLNDKLKEMFPGFRLALPPKRWFKDNYNAEFLEDRQLGLQAFLQNLVAHKDIANCLAVREFLCLDDPPGPFDSLEESRAFCETLEETNYHLQRELLEKQKEVESLKKLLGEKQLHIDALETRIRTLSLEPGASLYVSRAEGGQILRVEPSVLQVNRDVLDEESRADHKPHFNSREAGSVIAGIEVAQLAYNAEDD
binds | SHANK2 (protein, UniProt Q80Z38 1-1476) MKSLLNAFTKKEVPFREAPAYSNRRRRPPNTLAAPRVLLRSNSDNNLNAGAPEWAVCSAATSHRSLSPQLLQQTPSKPDGATKSLGSYTPGPRSRSPSLNRLGGTAEDGKRTQPHWHVGSPFTPGANKDSLSTFEYPGPRRKLYSAVPGRLFVAVKPYQPQVDGEIPLHRGDRVKVLSIGEGGFWEGSARGHIGWFPAECVEEVQCKPRDSQAETRADRSKKLFRHYTVGSYDSFDAASDCIIEDKTVVLQKKDNEGFGFVLRGAKADTPIEEFTPTPAFPALQYLESVDEGGVAWQAGLRTGDFLIEVNNENVVKVGHRQVVNMIRQGGNHLILKVVTVTRNLDPDDTARKKAPPPPKRAPTTALTLRSKSMTAELEELGLSLVDKASVRKKKDKPEEIVPASKPSRTAENVAIESRVATIKQRPTSRCFPAASDVNSVYERQGIAVMTPTVPGSPKGPFLGLPRGTMRRQKSIDSRIFLSGITEEERQFLAPPMLKFTRSLSMPDTSEDIPPPPQSVPPSPPPPSPTTYNCPRSPTPRVYGTIKPAFNQNPVVAKVPPATRSDTVATMMREKGMFYRRELDRFSLDSEDVYSRSPAPQAAFRTKRGQMPENPYSEVGKIASKAVYVPAKPARRKGVLVKQSNVEDSPEKTCSIPIPTIIVKEPSTSSSGKSSQGSSMEIDPQATEPGQLRPDDSLTVSSPFAAAIAGAVRDREKRLEARRNSPAFLSTDLGDEDVGLGPPAPRMQASKFPEEGGFGDEDETEQPLLPTPGAAPRELENHFLGGGEAGAQGEAGGPLSSTSKAKGPESGPAAPLKSSSPAGPENYVHPLTGRLLDPSSPLALALSARDRAMQESQQGHKGEAPKADLNKPLYIDTKMRPSVESGFPPVTRQNTRGPLRRQETENKYETDLGKDRRADDKKNMLINIVDTAQQKSAGLLMVHTVDVPMAGPPLEEEEDREDGDTKPDHSPSTVPEGVPKTEGALQISAAPEPAVAPGRTIVAAGSVEEAVILPFRIPPPPLASVDLDEDFLFTEPLPPPLEFANSFDIPDDRAASVPALADLVKQKKNDTSQPPTLNSSQPANSTDSKKPAGISNCLPSSFLPPPESFDAVTDSGIEEVDSRSSSDHHLETTSTISTVSSISTLSSEGGESMDTCTVYADGQAFVVDKPPVPPKPKMKPIVHKSNALYQDTLPEEDTDGFVIPPPAPPPPPGSAQAGVAKVIQPRTSKLWGDVPEVKSPILSGPKANVISELNSILQQMNRGKSVKPGEGLELPVGAKSANLAPRSPEVMSTVSGTRSTTVTFTVRPGTSQPITLQSRPPDYESRTSGPRRAPSPVVSPTELSKEILPTPPPPSATAASPSPTLSDVFSLPSQSPAGDLFGLNPAGRSRSPSPSILQQPISNKPFTTKPVHLWTKPDVADWLESLNLGEHKETFMDNEIDGSHLPNLQKEDLIDLGVTRVGHRMNIERALKQLLDR
binds | WASHC2 (FAM21) (protein, UniProt Q6PGL7 1-1334) MNRTSPDSERPPASEPVWERPWSVEEIRRSSQNWSLAADAGLLQFLQEFSQQTISRTHEIKKQVDGLIQETKATHCRLHNVFNDFLMLSNTQFIENRVYDEEVEEQVLKAEAEKAEQEKTREQKEIDLIPKVQEAVNYGLQVLDSAFEQLDIKAGNSDSEEDDANERVDLILEPKDLYIDRPLPYLIGSKLFMEQEDVGLGELSSEEGSVGSDRGSIVDSEDEKEEEESDEDFASHSDNDQNQHTTQISDEEEDDDGDLFADSEKEGDDIEDIEESAKSKRPTSFADELAARIKGDISNQRKEGQTDGKPQKTVKEKKERRTPADDEEDILFPPPTLTDEDFSPFGSRGGLFSNGQGLFDDEDESDLFKEAPRARPAQAPVSEELPPSPKPGKKIPAGAVSVLLGHPDVSGSTSAPSLKELQKHGQPTPGKSSHLPTPAGLFDDDDNDNDEDDNNFFMPSSSKPSKTDKVKSTAIIFDDDEGDLFKEKAEALPAASVSQTHESKTRADKTIALPSSKNLKLVSETKTQKGLFSDEEDSEDLFSSQSSSKPKSASLPSSQPPTSVSLFGDEDEEDSLFGSAAAKKQTSSLQPQSQEKAKPSEQPSKKTSALLFSSDEEDQWNIADSHTKLASDNKSKGELWDSGATQGQEAKAVKKTNLFEDDDDDEVDLFAIAKDSQKKTQRTSLLFEDDAESGSSLFGLPPTSVPSATTKKESVPKVPLLFSDEEDSEVPSGVKPEDLKVDNARVSPEVGSADVASIAQKEGLLPASDQEAGGPSDIFSSSSPLDKGAKGRTRTVLSLFDEDEDKVEDESSTCAPQDGREKGLKTDSRPKSTGVFQDEELLFSHKLQKDNDPDVDLFAGTKKIRSSVPSGGSLFGDDEDDDLFSSAKTQPVVPEKKGTLKKDHPVSLKNQDPLDSTQGSKEKSTWKTEPAQDSSGLTPFKSREPSSRIGKIQANLAINPAALLPTVALQIPGTKPVSSELAFPSSEPGRSHILESVPTLPGSVEAGVSFDLPAQADTLHSANKSRVKVRGKRRPQTRAARRLAAQESSEAEDVTVDRGPVAQLSSSPVLPNGHQPLLQPRMASGQTSSETATAPPWEGGPVLSAADRSFFVKSRPQTGNEADLFDSGDIFPKSRGSQSVEGAGVMAGEPPSHSSGGRKEKSLAFPDLSEGSSTEDLFQSVKPRAAKNRNPFPLLEDEEDLFADPRGKKNERKPDSHQDSVSKTHDIFEDDIFATEAIKPFPKKREKGRTLEPNLFDDNIDIFADLTVKPKEKSKKKVAAKSMFDDDTDDIFSSGLQAKASKPKSQSAEAASEQRSEHKVASIFDDPLNAFGSQ
